# Data reported in PubChem BioAssay AID1487 (National Center for Advancing Translational Sciences (NCATS), 2009).
# The other results are listed elsewhere or left out. The main result of the screen is listed elsewhere. These columns were measured beside it and carry no call. Most of these compounds were active or inconclusive in the main read-out, so they are no random draw. Words in brackets tell the shape of the fitted curve; partial curves, single points and poor fits give uncertain potencies.
# Assay: qHTS Assay for Modulators of Lamin A Splicing
# Conditions: HeLa LMNA splicing GFP/RFP minigene ratio, 48 h
# Summary of the method: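 S3 HeLa cells stably expressing lamin A-EGFP splicing minigene plus DsRed2, 600 cells/well, 48 h compound exposure at 37C. Laser-scanning cytometry; analysed as GFP (500-530 nm)/RFP (575-640 nm) total intensity ratio; 0.5% DMSO vehicle.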
# [1] = measured here: GFP splicing reporter channel
# [2] = measured here: RFP viability control channel
smiles,measurement,setting,value
Cc1ccc(OCc2nc(C#N)c(NCc3ccc4c(c3)OCO4)o2)cc1,AC50,[1],"35.5 µM [rising, single point]"
S=C(NCc1ccc(Cl)c(Cl)c1)Nc1ccc2c(c1)OCO2,AC50,[2],"35.5 µM [rising, single point]"
O=[N+]([O-])c1cc(CN2CCN(c3cccc(C(F)(F)F)c3)CC2)c2cccnc2c1O,AC50,[1],"3.55 µM [rising, partial curve]"
Cc1ccc(C)n1-c1ccc(C(=O)NCc2ccncc2)cc1,AC50,[1],"0.126 µM [rising, full curve, poor fit]"
same,AC50,[2],"22.4 µM [rising, partial curve, poor fit]"
O=C(Cc1ccc2c(c1)OCCO2)c1c(O)cc(O)cc1O,AC50,[1],"25.1 µM [rising, single point]"
same,AC50,[2],"25.1 µM [rising, single point]"
O=C(NCC1CCN(Cc2ccccc2Cl)CC1)c1cc2ccc3cccnc3c2[nH]1,AC50,[1],"28.2 µM [rising, partial curve]"
same,AC50,[2],"17.8 µM [rising, partial curve]"
COc1ccccc1CNC(=O)CCc1c(C)nn(-c2ccc(N3CCCC3)nn2)c1C,AC50,[2],"0.251 µM [falling, full curve]"
Cc1cc(=O)n(Cc2ccccc2Cl)c2c1c(C)nn2-c1ccccc1,AC50,[1],"10 µM [rising, partial curve, poor fit]"
same,AC50,[2],"20 µM [rising, partial curve, poor fit]"
CCC1CCCCN1C(=O)c1cccc(S(=O)(=O)Nc2cc(C(F)(F)F)ccc2Cl)c1 (stereo unspecified),AC50,[1],"14.1 µM [rising, single point]"
same,AC50,[2],"25.1 µM [rising, single point]"
Cc1ccc(CSc2nc3ccsc3c(=O)n2CCC(C)C)cc1,AC50,[2],"25.1 µM [rising, single point]"
Nn1c(SCC(=O)Nc2ccccc2F)nnc1-c1cccnc1,AC50,[2],"0.01 µM [rising, full curve, poor fit]"
CC(C)CCNC(=O)NC(=O)COC(=O)/C=C/c1cccc([N+](=O)[O-])c1,AC50,[1],"0.0141 µM [falling, full curve]"
same,AC50,[2],"0.01 µM [falling, full curve, poor fit]"
Cn1cc(C(=O)c2ccc(Cl)cc2Cl)cc1C(=O)N/N=C(\N)COc1ccc(F)cc1,AC50,[2],"31.6 µM [rising, single point]"
CCn1c(Cc2ccccc2)nnc1SCC(=O)Nc1ccccc1N1CCOCC1,AC50,[2],"22.4 µM [rising, single point]"
CCN(C(=O)Cn1cc(C(=O)c2ccc(F)cc2)c(=O)c2ccc(C)nc21)c1cccc(C)c1,AC50,[2],"0.00282 µM [falling, full curve, poor fit]"
CCOC(=O)c1cc(OC(=O)c2cccc(Cl)c2)n(-c2ccccc2)n1,AC50,[2],"0.891 µM [falling, full curve, poor fit]"
COc1ccc(/C=C2/C(=O)OCc3cc(OC)c(OC)cc32)cc1,AC50,[1],"5.62 µM [rising, single point]"
same,AC50,[2],"3.55 µM [rising, single point]"
Cc1ccc(S(=O)(=O)N/N=C/c2ccc(OS(=O)(=O)c3ccc(C)c([N+](=O)[O-])c3)cc2)cc1,AC50,[1],"31.6 µM [rising, single point]"
same,AC50,[2],"15.8 µM [rising, single point]"
CCOC(=O)c1ccc(N2C(=O)C3C(/C=C/c4ccccc4)OC4(C(=O)c5ccccc5C4=O)C3C2=O)cc1 (stereo unspecified),AC50,[2],"3.98 µM [rising, partial curve, poor fit]"
Cc1cccc(OCCOc2ccccc2C=C(C#N)C#N)c1,AC50,[1],"35.5 µM [falling, single point]"
same,AC50,[2],"35.5 µM [falling, single point]"
COc1ccc(-c2oc3ncnc(NCCN4CCOCC4)c3c2-c2ccc(OC)cc2)cc1,AC50,[2],"17.8 µM [rising, partial curve]"
CC(=O)Nc1ccccc1OCC(=O)NCCc1ccc(Cl)cc1Cl,AC50,[2],"31.6 µM [rising, partial curve, poor fit]"
COc1ccc(CCN(C)Cc2nc(Cc3ccc(OC)c(OC)c3)no2)cc1OC,AC50,[1],"22.4 µM [falling, single point]"
CCC(=O)Nc1ccc(Cl)c(NC(=S)NC(=O)COc2ccc(Cl)cc2)c1,AC50,[1],"3.98 µM [rising, partial curve, poor fit]"
same,AC50,[2],"3.98 µM [rising, single point]"
Cc1onc(-c2ccccc2)c1C(=O)Nc1nc(-c2ccc(F)c(F)c2)cs1,AC50,[1],"6.31 µM [rising, single point]"
COc1cccc(-c2[nH]c3c(c2-c2c(-n4cccc4)n(C)c(=O)[nH]c2=O)c(=O)[nH]c(=O)n3C)c1,AC50,[1],"0.0126 µM [rising, full curve, poor fit]"
C/C(Cl)=C\Cn1c(NCCc2ccccc2)nc2c1c(=O)n(C)c(=O)n2C,AC50,[1],"2.24 µM [rising, full curve, poor fit]"
same,AC50,[2],"3.16 µM [rising, full curve]"
Cc1ccc(N(CC(=O)Nc2cccc(C)c2)S(=O)(=O)c2cccc3nonc23)cc1,AC50,[1],"31.6 µM [rising, single point]"
same,AC50,[2],"20 µM [rising, single point]"
CN(c1ccccc1)c1ccc(/C=C(\CCC(=O)O)c2nc3ccccc3s2)cc1[N+](=O)[O-],AC50,[2],"12.6 µM [rising, partial curve, poor fit]"
Cc1ccc(C(=O)N2CCc3cc(CNC(=O)c4ccnn4C)ccc32)cc1,AC50,[1],"35.5 µM [falling, single point]"
CC(C)CC(C)NNC(=O)c1cc2ccccc2[nH]1 (stereo unspecified),AC50,[2],"0.447 µM [falling, partial curve, poor fit]"
CCC[n+]1c(C)sc2c3c(ccc21)CCCC3,AC50,[2],"35.5 µM [falling, single point]"
Cn1c(=O)c2ccccc2n(Cc2ccccc2F)c1=O,AC50,[2],"35.5 µM [rising, single point]"
COc1c(OC(C)=O)ccc(/C=C/c2ccc3cccc(OC)c3n2)c1[N+](=O)[O-],AC50,[1],"2.82 µM [rising, partial curve, poor fit]"
COc1ccc2nc3ccccc3nc2c1,AC50,[2],"10 µM [falling, partial curve, poor fit]"
O=C(NCc1ccc2c(c1)CCN2C(=O)c1ccccc1)c1ccc(Br)o1,AC50,[1],"22.4 µM [falling, partial curve, poor fit]"
same,AC50,[2],"35.5 µM [falling, single point]"
Cc1nnn(-c2nonc2N)c1C(=O)N/N=C/c1ccccc1O,AC50,[2],"5.01 µM [rising, single point]"
N#Cc1cccc(NC(=O)Cc2ccccc2)c1,AC50,[1],"3.55 µM [rising, partial curve, poor fit]"
same,AC50,[2],"3.16 µM [rising, partial curve, poor fit]"
O=C(O)CCN1C(=O)CC(N2C(=O)/C(=C/c3ccc(Cl)cc3)SC2=S)C1=O (stereo unspecified),AC50,[2],"22.4 µM [rising, partial curve, poor fit]"
COc1ccc(-c2noc(CSc3nnc(Cc4ccccc4)n3-c3ccc(Cl)cc3)n2)cc1,AC50,[2],"11.2 µM [rising, single point]"
COC(=O)c1ccc2c(=O)n(CCCCCC(=O)N3CCN(c4cc(Cl)ccc4C)CC3)c(=O)[nH]c2c1,AC50,[1],"5.01 µM [falling, full curve, poor fit]"
same,AC50,[2],"3.98 µM [falling, partial curve]"
Cn1c(C(=O)NCCN2CCc3ccccc3C2)cc2c(=O)[nH]c3ccccc3c21,AC50,[2],"0.282 µM [rising, partial curve]"
COc1cc(C(=S)N(C)C)ccc1O,AC50,[1],"0.794 µM [rising, full curve]"
O=c1c2cc(NC(=S)N3CCCC3)ccc2nc2n1CCCCC2,AC50,[1],"3.16 µM [falling, partial curve, poor fit]"
CC1(C(=O)Nc2cccc(S(=O)(=O)N3CCOCC3)c2)Cc2ccccc2C(=O)O1 (stereo unspecified),AC50,[1],"0.355 µM [rising, full curve, poor fit]"
CC12CCC(C/C1=N/OC(=O)c1cccc([N+](=O)[O-])c1)C2(C)C (stereo unspecified),AC50,[1],"10 µM [falling, partial curve]"
same,AC50,[2],"0.00316 µM [falling, full curve, poor fit]"
O=C(O)c1cc(-c2ccco2)nc2ccc(Br)cc12,AC50,[2],"0.562 µM [falling, full curve, poor fit]"
O=c1oc2ccccc2c(NCc2cccc(F)c2)c1[N+](=O)[O-],AC50,[2],"35.5 µM [rising, single point]"
O=C(Nc1cccc(C(=O)N2CCN(c3ccccc3F)CC2)c1)c1nsc2ccccc12,AC50,[1],"10 µM [falling, partial curve, poor fit]"
CC1=CN2C(=N)/C(=C/c3ccc(Sc4ccc(C)cc4)o3)C(=O)N=C2S1,AC50,[2],"17.8 µM [rising, single point]"
Fc1ccc(NC(=S)Nc2ccc(Cl)cc2)cc1,AC50,[1],"0.0316 µM [falling, full curve]"
COc1ccc(C(=O)OCc2cc3cccc(C)c3[nH]c2=O)cc1,AC50,[2],"0.112 µM [rising, full curve, poor fit]"
Cc1ccc(OCCn2c(C3CC(=O)N(Cc4ccccc4)C3)nc3ccccc32)cc1 (stereo unspecified),AC50,[2],"12.6 µM [rising, partial curve]"
Cc1ccccc1C(=O)Nc1ccc2nc(Nc3cccc(C(F)(F)F)c3)cc(C)c2c1,AC50,[1],"0.1 µM [falling, full curve]"
COc1cccc(CNCCc2c[nH]c3ccccc23)c1OCc1ccccc1,AC50,[2],"22.4 µM [rising, partial curve, poor fit]"

# Part of the list above, bar-delimited:
smiles | measurement | setting | value
O=C(Cc1ccc2c(c1)OCCO2)c1c(O)cc(O)cc1O | AC50 | [1] | 25.1 µM [rising, single point]
O=C(NCC1CCN(Cc2ccccc2Cl)CC1)c1cc2ccc3cccnc3c2[nH]1 | AC50 | [1] | 28.2 µM [rising, partial curve]
COc1ccc(/C=C2/C(=O)OCc3cc(OC)c(OC)cc32)cc1 | AC50 | [1] | 5.62 µM [rising, single point]
COc1c(OC(C)=O)ccc(/C=C/c2ccc3cccc(OC)c3n2)c1[N+](=O)[O-] | AC50 | [1] | 2.82 µM [rising, partial curve, poor fit]
O=C(NCc1ccc2c(c1)CCN2C(=O)c1ccccc1)c1ccc(Br)o1 | AC50 | [2] | 35.5 µM [falling, single point]
O=C(O)c1cc(-c2ccco2)nc2ccc(Br)cc12 | AC50 | [2] | 0.562 µM [falling, full curve, poor fit]
